In all, about 320,000 compounds went through this assay and about 620 (0.19%) were called active. Inconclusive means that the source gave no clear call. Such entries were picked first, then a sample of the others. Cut-off read from the data, not from the text of the source: active = activation above about 80%; inconclusive = between about 30% and that limit; inactive = weaker than that.
The molecules below were run against Transient receptor potential cation channel subfamily V member 1 (Homo sapiens) (UniProt Q8NER1) (assay: HTS Assay for Compounds that Act as Agonists of the Vanilloid Receptor 1). Details: TRPV1-expressing cells, Fluo-8 calcium influx, agonist mode; at 8.33 µM, active compounds read high.
Procedure, shortened: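 Fluo-8 calcium influx in TRPV1-expressing cells, kinetic read (ex 480/em 520 nm). Compound added and read 3 min for agonist activity, followed by capsaicin at EC20 final and 2 min further read for enhancement.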
Note: 0% is about no effect.

Sequences of proteins named here, by UniProt entry; tags and fusion partners are left off.
UniProt Q8NER1, whole entry, looked up: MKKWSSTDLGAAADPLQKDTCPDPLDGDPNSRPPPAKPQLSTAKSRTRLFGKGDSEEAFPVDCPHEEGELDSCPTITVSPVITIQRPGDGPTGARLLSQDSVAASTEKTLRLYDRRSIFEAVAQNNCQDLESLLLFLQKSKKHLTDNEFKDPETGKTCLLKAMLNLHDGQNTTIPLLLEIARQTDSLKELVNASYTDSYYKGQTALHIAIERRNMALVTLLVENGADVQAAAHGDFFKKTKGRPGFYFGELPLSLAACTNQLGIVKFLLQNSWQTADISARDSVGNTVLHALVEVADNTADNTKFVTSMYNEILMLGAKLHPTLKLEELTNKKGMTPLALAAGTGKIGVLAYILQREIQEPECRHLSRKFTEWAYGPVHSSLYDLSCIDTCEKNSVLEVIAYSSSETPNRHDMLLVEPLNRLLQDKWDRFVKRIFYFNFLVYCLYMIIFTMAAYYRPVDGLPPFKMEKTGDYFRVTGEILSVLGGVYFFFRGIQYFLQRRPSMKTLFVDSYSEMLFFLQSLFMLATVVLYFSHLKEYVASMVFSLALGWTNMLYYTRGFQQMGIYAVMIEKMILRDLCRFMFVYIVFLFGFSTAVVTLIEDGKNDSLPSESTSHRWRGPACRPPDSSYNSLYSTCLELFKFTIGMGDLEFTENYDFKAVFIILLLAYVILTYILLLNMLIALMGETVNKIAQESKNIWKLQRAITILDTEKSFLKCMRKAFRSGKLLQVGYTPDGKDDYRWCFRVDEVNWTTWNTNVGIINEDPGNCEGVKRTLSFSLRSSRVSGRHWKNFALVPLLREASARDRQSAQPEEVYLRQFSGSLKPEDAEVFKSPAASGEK

Row | SMILES | activation
1 | N#Cc1nc(-c2ccccc2F)oc1NCCc1ccccc1 | inconclusive: 66.6%
2 | CSc1oc(-c2ccc(F)cc2)nc1S(=O)(=O)c1ccccc1 | inconclusive: 34%
3 | Cc1cc(C)cc(-n2nnc(C(=O)NCc3ccccc3)c2N)c1 | inactive: 0.608%
4 | CC/C(=C\C1CCCCC1)C(NP(=O)(c1ccccc1)c1ccccc1)c1ccccc1 (stereo not given) | inconclusive: 75.6%
5 | CCc1ccc(NC(=O)c2cc(C)no2)cc1 | inconclusive: 74%
6 | O=C(CCc1ccccc1)N1CCN(c2ccc([N+](=O)[O-])cc2)CC1 | inconclusive: 30.6%
7 | O=C(Nc1ccc(N2CCOCC2)c(Cl)c1)c1ccco1 | inconclusive: 57.5%
8 | O=C(Cc1cc2ccccc2o1)NCc1ccc(F)cc1 | inconclusive: 39.4%
9 | CCN(CCCNc1ncnc2nc[nH]c12)c1cccc(C)c1 | inconclusive: 47%
10 | N#C/C(=C/c1ccccc1)C(=O)NCc1ccccc1 | inconclusive: 42.6%
11 | COC(=O)c1ccccc1NC(=O)CN1CCC(n2nnc3cc(F)ccc32)CC1 | inconclusive: 32.2%
12 | CCn1c(-c2cc(-c3ccc(OC(C)C)cc3)nc3ccccc23)n[nH]c1=S | inconclusive: 60.5%
13 | Cc1nn2c(-c3ccccc3)ccnc2c1Br | inactive: 9.11%
14 | CCCCCn1c(SCCC(C)C)nc2c1c(=O)[nH]c(=O)n2C | inconclusive: 40.2%
15 | CCn1c(=S)[nH]c2cc(S(=O)(=O)N3CCCCC3)ccc21 | inactive: 2.77%
16 | Cc1cccc(C)c1NC(=O)CN1C(=O)NC(C)(CCc2ccccc2)C1=O (stereo not given) | inactive: -2.35%
17 | CC(NC(=O)c1ccc(Cl)cc1)C1CC2CCC1C2 (stereo not given) | inconclusive: 32%
18 | O=C(c1cc2cc(Br)ccc2o1)N1CCOCC1 | inconclusive: 54.9%
19 | Cc1cc(N2CCCC2)ccc1/C=C1\NC(=S)N(C)C1=O | inconclusive: 77.8%
20 | CCOc1ccccc1NC(=O)c1ccc(F)c(S(=O)(=O)N2CCC3(CC2)OCCO3)c1 | inactive: 10.4%
21 | COC(=O)N1CCN(c2ccc(C)cc2)C(C)C1 (stereo not given) | inconclusive: 47.4%
22 | Cc1oncc1-c1csc(-c2ccccc2)n1 | inconclusive: 30%

By substructure, the compounds so far containing an NH in an aromatic ring (4)
Row | SMILES | activation
9 | CCN(CCCNc1ncnc2nc[nH]c12)c1cccc(C)c1 | inconclusive: 47%
12 | CCn1c(-c2cc(-c3ccc(OC(C)C)cc3)nc3ccccc23)n[nH]c1=S | inconclusive: 60.5%
14 | CCCCCn1c(SCCC(C)C)nc2c1c(=O)[nH]c(=O)n2C | inconclusive: 40.2%
15 | CCn1c(=S)[nH]c2cc(S(=O)(=O)N3CCCCC3)ccc21 | inactive: 2.77%

Additional records

Row | SMILES | activation
23 | O=C(c1cc(-c2ccc(Br)cc2)on1)N1CCCC1 | inconclusive: 32.9%
24 | C=CCNC(=S)N1CCC(Cc2ccccc2)CC1 | inconclusive: 34.4%
25 | CC1CCN(S(=O)(=O)c2cc(C(=O)Nc3ccccn3)ccc2Br)CC1 | inconclusive: 48.5%
26 | NC(=O)COc1ncnc2scc(-c3ccc(F)cc3)c12 | inactive: -7.57%
27 | O=C1c2ccccc2S(=O)(=O)N1CC1CC(c2ccccc2)=NO1 (stereo not given) | inactive: 7.69%
28 | O=C(c1ccccc1)C1CCN(C(=O)Nc2ccccc2)CC1 | inconclusive: 52.9%
29 | COc1cc(/C=C/C(=O)OCC(=O)Nc2cc(S(=O)(=O)N(C)C)ccc2Cl)ccc1O | inconclusive: 70.7%
30 | O=C(O)c1ccc(COc2ccc3ccccc3c2/C=C2/NC(=O)N(c3ccccc3)C2=O)cc1 | inactive: -17.1%
31 | O=C(NCc1ccc(Cl)cc1)c1cc2ccccn2n1 | inconclusive: 36.3%
32 | CCOC(=O)/C(C#N)=C\c1ccc(N2CCN(C/C=C/c3ccccc3)CC2)cc1 | inactive: 18.6%
33 | O=C(CCc1ccccc1)N/N=C/c1cccc(O)c1 | inconclusive: 47.7%
34 | Cc1cc(C)cc(NC(=O)Nc2ccc(-n3ccc(C(F)(F)F)n3)cc2)c1 | inactive: -4.19%
35 | Cc1ccc(NC(=O)c2ccc3c(c2)CCN3S(C)(=O)=O)cc1C | inconclusive: 78%
36 | CCC(=O)Nc1sc2c(c1C(N)=O)CCN(Cc1ccccc1)C2 | inactive: 29.4%
37 | CCOCCCN(C(=O)Nc1ccc(CC)cc1)C1CCN(C(C)=O)CC1 | inactive: -2.48%
38 | CCN(c1ccccc1)S(=O)(=O)c1cccc(C(=O)NCc2ccncc2)c1 | inconclusive: 32.2%
39 | COc1ccccc1C(CNC(=O)CNC(=O)c1ccccc1Cl)N1CCCC1 (stereo not given) | inactive: -2.04%
40 | O=C(c1cc2c(s1)CCCC2)N1CCN(c2ccccc2)CC1 | inconclusive: 52%
41 | CCOC(=O)c1ccc(NC(=O)C2C3CCCCC32)cc1 (stereo not given) | inconclusive: 71.4%
42 | CC1(C(=O)OCC(=O)NCCNC(=O)COC(=O)C2(C)CC2(Cl)Cl)CC1(Cl)Cl (stereo not given) | inconclusive: 78.8%
43 | CCC(C)c1ccc(NC(=O)Nc2cccnc2)cc1 (stereo not given) | inconclusive: 79.5%
44 | COC(=O)CC(c1ccc(C(C)C)cc1)n1cccc1 (stereo not given) | inconclusive: 33.5%

Row | SMILES | activation
45 | CN1C[C@@H]2C(c3ccc(Cl)nc3)C3(c4ccccc4)CC2(C3)[C@H]1c1ccccc1 (stereo not given in full) | inconclusive: 40.7%
46 | Cc1ccc(SCCC(=O)Nc2nccs2)cc1 | inconclusive: 36.6%
47 | COc1cccc(N(C(=O)CCl)C(C(=O)NCCc2ccccc2)c2cccs2)c1 (stereo not given) | inactive: 9.43%
48 | CCOC(=O)C1=C(c2ccccc2)N=c2s/c(=C\c3ccco3)c(=O)n2C1c1cccs1 (stereo not given) | inactive: 20.1%
49 | COc1ccc(CC(=O)Nc2cccc(-c3nnc(-c4ccc(C)cc4)o3)c2)cc1OC | inconclusive: 48.3%
50 | O=C(NC1CCOC1)c1cc(COc2cccc(C(F)(F)F)c2)on1 (stereo not given) | inconclusive: 30.9%
51 | CCN(Cc1ccccc1)C(c1ccccn1)c1nnnn1C(C)(C)CC (stereo not given) | inconclusive: 44.1%
52 | CC1CCc2nc(N)c(C#N)c(-c3ccncc3)c2C1 (stereo not given) | inactive: -4.5%
53 | Cc1c(NC(=O)c2ccc3nsnc3c2)cccc1[N+](=O)[O-] | inconclusive: 43.7%
54 | CCOc1ccccc1N(CC(=O)Nc1cccnc1)S(=O)(=O)c1ccc(C)cc1 | inconclusive: 32.2%
55 | CC(=O)c1cccc(NC(=O)COC(=O)CC2CC3CCC2C3)c1 (stereo not given) | inconclusive: 39.9%
56 | COc1ccc(NC(=O)c2ccc(C)cc2)cc1 | inconclusive: 47%
57 | Clc1cccc(-c2cc3nc4c(c(NCc5ccco5)n3n2)CCCC4)c1 | inconclusive: 36.5%
58 | O=C(COc1ccc(Br)cc1)N1CCc2ccccc2C1 | inconclusive: 43.7%
59 | O=C(Nc1cccc(O)c1)c1ccc2c(c1)C(=O)N(Cc1ccco1)C2=O | inconclusive: 66.5%
60 | Cc1ccc(-c2c(C(=O)N/N=C/c3sccc3C)nnn2-c2nonc2N)cc1 | inactive: 0.845%
61 | CC1CCc2sc(C(=O)N/N=C/c3ccc(O)cc3)cc2C1 (stereo not given) | inconclusive: 72.5%
62 | COc1ccc(CN(C)Cc2cc(=O)oc3cc(C)c(C(C)C)cc23)cc1OC | inconclusive: 70.8%
63 | O=C(Nc1cccc(C(F)(F)F)c1)NC1CCCCC1 | inconclusive: 37.6%
64 | O=C(C(Sc1ccccc1)c1ccccc1)N1CCN(c2ccccc2)CC1 (stereo not given) | inconclusive: 41%
65 | COc1ccc(NC(=O)C2CCN(S(=O)(=O)c3ccc(N4CCCC4=O)cc3)CC2)c(OC)c1 | inactive: 2.98%
66 | S=C(NCc1ccccc1)NNc1ccccc1 | inconclusive: 33.9%

Row | SMILES | activation
67 | O=C1CCCN1CCC12CC3CC(CC(C3)C1)C2 | inconclusive: 57.9%
68 | O=C(Nc1ccc(Br)cc1)c1ccc(-n2cnnn2)cc1 | inconclusive: 61.4%
69 | COc1cccc(CN(C)CC(=O)Nc2ccccc2C(C)C)c1 | inconclusive: 44.9%
70 | CCCc1ccc(Oc2c(-c3ccc(O)c(C)c3O)n[nH]c2C)cc1 | inactive: 5.08%
71 | Cc1cc(-c2ccc(C)c(S(=O)(=O)N3CCN(c4ccc([N+](=O)[O-])cc4)CC3)c2)on1 | inactive: -0.887%
72 | O=C(Nc1ccc2c(c1)OCO2)c1cccc(S(=O)(=O)N2CCCC2)c1 | inconclusive: 60.7%
73 | Cc1cccc(C(=O)NC(=S)NNC(=O)c2ccc(Cl)cc2)c1 | inconclusive: 34%
74 | O=C(NC1=NCCS1)c1cc(-c2ccc(-c3ccccc3)cc2)nc2ccccc12 | inactive: 1.91%
75 | C#CCn1c(O)c(N=NC(=O)CNC(=O)/C=C/c2ccccc2)c2ccccc21 | inactive: -4.06%
76 | O=C(NC1CCCC1)c1cc2c(ccc3ccccc32)o1 | inconclusive: 60.7%
77 | S=c1[nH]nc(-c2ccco2)n1/N=C/c1ccc(Cl)cc1 | inactive: 11.6%
78 | O=C(COc1cccc(Cl)c1)NNC(=S)Nc1ccccc1 | inactive: -7.38%
79 | Cc1oc2c(c(C)cc3oc(=O)c(CC(=O)NCCCO)c(C)c32)c1C | inconclusive: 39.4%
80 | CC1CCCC(NC(=O)c2cc(S(=O)(=O)N3CCOCC3)ccc2F)C1C (stereo not given) | inconclusive: 64.1%
81 | Cc1ccc(C2=N/C(=C\N(C)C)C(=O)O2)cc1 | inconclusive: 41.7%
82 | COc1ccc(CNC(=O)CCSCc2ccc(C)cc2)cc1 | inconclusive: 51.1%
83 | CCN(CC)c1ccc(NC(=O)COC(=O)CCC(=O)c2cccs2)cc1 | inconclusive: 51.8%
84 | CC(C)c1ccc(/C=N/NC(=O)c2c(Cl)cnn2C)cc1 | inconclusive: 68.7%
85 | CCc1ccc(C(C)NC(=S)NC2CCCCC2)cc1 (stereo not given) | inconclusive: 49.4%
